{"source": "the supplement of paper PMC8728848", "test_in_all_cases": "glycan array binding signal (z-score within array); higher = stronger binding", "conditions_in_all_cases": "glycan notation: IUPAC condensed, linker removed", "key": {"Fuc(a1-2)Gal": {"target": "Fuc(a1-2)Gal", "in_short": "(§1)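 Negative Z-scores can be read as non-binding. The Z-score is calculated within each array and then averaged across arrays of one protein sequence at different concentrations or buffers and across linkers. Arrays, 3228 in all, were curated from the Consortium for Functional Glycomics database and kept only where the protein sequence was available.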"}, "Fuc(a1-2)Gal(b1-3)GalNAc": {"target": "Fuc(a1-2)Gal(b1-3)GalNAc", "in_short": "as §1"}, "[1]": {"target": "Fuc(a1-2)Gal(b1-3)GalNAc(a1-3)[Fuc(a1-2)]Gal(b1-4)Glc", "in_short": "as §1"}, "[2]": {"target": "Fuc(a1-2)Gal(b1-3)GalNAc(a1-3)[Fuc(a1-2)]Gal(b1-4)GlcNAc", "in_short": "as §1"}, "[3]": {"target": "Fuc(a1-2)Gal(b1-3)GalNAc(b1-3)Gal", "in_short": "as §1"}, "[4]": {"target": "Fuc(a1-2)Gal(b1-3)GalNAc(b1-3)Gal(a1-4)Gal(b1-4)Glc", "in_short": "as §1"}, "[5]": {"target": "Fuc(a1-2)Gal(b1-3)GalNAc(b1-4)[Neu5Ac(a2-3)]Gal(b1-4)Glc", "in_short": "as §1"}, "Fuc(a1-2)Gal(b1-3)GlcNAc": {"target": "Fuc(a1-2)Gal(b1-3)GlcNAc", "in_short": "as §1"}, "[6]": {"target": "Fuc(a1-2)Gal(b1-3)GlcNAc(b1-2)Man(a1-3)[Fuc(a1-2)Gal(b1-3)GlcNAc(b1-2)Man(a1-6)]Man(b1-4)GlcNAc(b1-4)GlcNAc", "in_short": "as §1"}, "[7]": {"target": "Fuc(a1-2)Gal(b1-3)GlcNAc(b1-2)Man(a1-3)[Fuc(a1-2)Gal(b1-3)GlcNAc(b1-2)Man(a1-6)]Man(b1-4)GlcNAc(b1-4)[Fuc(a1-6)]GlcNAc", "in_short": "as §1"}, "[8]": {"target": "Fuc(a1-2)Gal(b1-3)GlcNAc(b1-3)Gal(b1-4)Glc", "in_short": "as §1"}, "[9]": {"target": "Fuc(a1-2)Gal(b1-3)GlcNAc(b1-3)GalNAc", "in_short": "as §1"}, "[10]": {"target": "Fuc(a1-2)Gal(b1-3)GlcNAc(b1-3)[Fuc(a1-2)Gal(b1-3)GlcNAc(b1-6)]GalNAc", "in_short": "as §1"}, "[11]": {"target": "Fuc(a1-2)Gal(b1-3)GlcNAc(b1-3)[Gal(b1-4)GlcNAc(b1-6)]Gal(b1-4)Glc", "in_short": "as §1"}, "[12]": {"target": "Fuc(a1-2)Gal(b1-3)GlcNAc(b1-3)[Neu5Ac(a2-6)Gal(b1-4)GlcNAc(b1-6)]Gal(b1-4)Glc", "in_short": "as §1"}, "[13]": {"target": "Fuc(a1-2)Gal(b1-3)GlcNAc6S", "in_short": "as §1"}, "[14]": {"target": "Fuc(a1-2)Gal(b1-3)[Fuc(a1-4)]GlcNAc", "in_short": "as §1"}, "[15]": {"target": "Fuc(a1-2)Gal(b1-3)[Fuc(a1-4)]GlcNAc(b1-2)Man(a1-3)[Fuc(a1-2)Gal(b1-3)[Fuc(a1-4)]GlcNAc(b1-2)Man(a1-3)]Man(b1-4)GlcNAc(b1-4)GlcNAc", "in_short": "as §1"}, "[16]": {"target": "Fuc(a1-2)Gal(b1-3)[Fuc(a1-4)]GlcNAc(b1-2)Man(a1-3)[Fuc(a1-2)Gal(b1-3)[Fuc(a1-4)]GlcNAc(b1-2)Man(a1-6)]Man(b1-4)GlcNAc(b1-4)[Fuc(a1-6)]GlcNAc(b1-4)[Fuc(a1-6)]GlcNAc", "in_short": "as §1"}, "[17]": {"target": "Fuc(a1-2)Gal(b1-3)[Fuc(a1-4)]GlcNAc(b1-3)[Fuc(a1-3)[Gal(b1-4)]GlcNAc(b1-6)]Gal(b1-4)Glc", "in_short": "as §1"}, "[18]": {"target": "Fuc(a1-2)Gal(b1-3)[Fuc(a1-4)]GlcNAc(b1-3)[Gal(b1-4)GlcNAc(b1-6)]Gal(b1-4)Glc", "in_short": "as §1"}, "Fuc(a1-2)Gal(b1-4)Glc": {"target": "Fuc(a1-2)Gal(b1-4)Glc", "in_short": "as §1"}, "Fuc(a1-2)Gal(b1-4)Glc6S": {"target": "Fuc(a1-2)Gal(b1-4)Glc6S", "in_short": "as §1"}, "Fuc(a1-2)Gal(b1-4)GlcNAc": {"target": "Fuc(a1-2)Gal(b1-4)GlcNAc", "in_short": "as §1"}, "[19]": {"target": "Fuc(a1-2)Gal(b1-4)GlcNAc(b1-2)Man", "in_short": "as §1"}, "[20]": {"target": "Fuc(a1-2)Gal(b1-4)GlcNAc(b1-2)Man(a1-3)[Fuc(a1-2)Gal(b1-4)GlcNAc(b1-2)Man(a1-6)]Man(b1-4)GlcNAc(b1-4)GlcNAc", "in_short": "as §1"}, "[21]": {"target": "Fuc(a1-2)Gal(b1-4)GlcNAc(b1-2)Man(a1-3)[Fuc(a1-2)Gal(b1-4)GlcNAc(b1-2)Man(a1-6)]Man(b1-4)GlcNAc(b1-4)[Fuc(a1-6)]GlcNAc", "in_short": "as §1"}, "[22]": {"target": "Fuc(a1-2)Gal(b1-4)GlcNAc(b1-2)[Fuc(a1-2)Gal(b1-4)GlcNAc(b1-4)]Man(a1-3)[Fuc(a1-2)Gal(b1-4)GlcNAc(b1-2)Man(a1-6)]Man(b1-4)GlcNAc(b1-4)GlcNAc", "in_short": "as §1"}, "[23]": {"target": "Fuc(a1-2)Gal(b1-4)GlcNAc(b1-3)Gal(b1-4)GlcNAc", "in_short": "as §1"}, "[24]": {"target": "Fuc(a1-2)Gal(b1-4)GlcNAc(b1-3)Gal(b1-4)GlcNAc(b1-2)Man(a1-3)[Fuc(a1-2)Gal(b1-4)GlcNAc(b1-3)Gal(b1-4)GlcNAc(b1-2)Man(a1-6)]Man(b1-4)GlcNAc(b1-4)GlcNAc", "in_short": "as §1"}, "[25]": {"target": "Fuc(a1-2)Gal(b1-4)GlcNAc(b1-3)Gal(b1-4)GlcNAc(b1-3)Gal(b1-4)GlcNAc", "in_short": "as §1"}, "[26]": {"target": "Fuc(a1-2)Gal(b1-4)GlcNAc(b1-3)GalNAc", "in_short": "as §1"}, "[27]": {"target": "Fuc(a1-2)Gal(b1-4)GlcNAc(b1-3)[Fuc(a1-2)Gal(b1-4)GlcNAc(b1-6)]GalNAc", "in_short": "as §1"}, "[28]": {"target": "Fuc(a1-2)Gal(b1-4)GlcNAc(b1-3)[Fuc(a1-3)[Gal(b1-4)]GlcNAc(b1-6)]Gal(b1-4)Glc", "in_short": "as §1"}, "[29]": {"target": "Fuc(a1-2)Gal(b1-4)GlcNAc(b1-6)GalNAc", "in_short": "as §1"}, "[30]": {"target": "Fuc(a1-2)Gal(b1-4)GlcNAc6S", "in_short": "as §1"}, "[31]": {"target": "Fuc(a1-2)Gal(b1-4)[Fuc(a1-3)]GlcNAc", "in_short": "as §1"}}, "note": "This is one part of the list.", "data": [{"binder": "GS13971A-bth-447-22-447 (Bacteroides thetaiotaomicron) (protein) EDVDNERSKGMFSASQSGFSTIEVYDLGPLNKIDLSIAKAGLEDTGGTVTFSVEQSLLDSLNNADGTSYQLLPPECYTIENATYSVSPGGDRRVTGGSLVYDPHKIYNLCGFDELKYVLPLRVSSTGTPMNSDRTATLYGFIVKEAIVRLASTGGDFVVEGGTTTSPMNLDTEISFENEWDLTTSFATKGADYVDNYNSANSTYYIPLPSDFYTLPDVTIAKGKTTGGSAISLLGETLPPGNYLLPVSLGGLSGQGDASINIDKETVANYFVIKQGGPINRDHWTVTANTEEKTGEVSAAYPHNGQTISLIDGEINTFWHSKWQGGEVAPPYEIILDMGKENSVSQLGLIARQNALTSMNLEIYAGDDGETWNLIGKYFFDGSIKTEQMVPVKACDARWIRIYIPTLGSGSSVGHLAEIYVYGTDK", "values": [{"measurement": "glycan array binding signal (z-score)", "setting": "Fuc(a1-2)Gal", "result": -0.389}, {"measurement": "glycan array binding signal (z-score)", "setting": "Fuc(a1-2)Gal(b1-3)GalNAc", "result": -0.778}, {"measurement": "glycan array binding signal (z-score)", "setting": "[1]", "result": 0.174}, {"measurement": "glycan array binding signal (z-score)", "setting": "[2]", "result": -0.736}, {"measurement": "glycan array binding signal (z-score)", "setting": "[3]", "result": 0.302}, {"measurement": "glycan array binding signal (z-score)", "setting": "[4]", "result": -0.725}, {"measurement": "glycan array binding signal (z-score)", "setting": "[5]", "result": -0.611}, {"measurement": "glycan array binding signal (z-score)", "setting": "Fuc(a1-2)Gal(b1-3)GlcNAc", "result": 0.107}, {"measurement": "glycan array binding signal (z-score)", "setting": "[6]", "result": -0.442}, {"measurement": "glycan array binding signal (z-score)", "setting": "[7]", "result": -0.945}, {"measurement": "glycan array binding signal (z-score)", "setting": "[8]", "result": -0.04}, {"measurement": "glycan array binding signal (z-score)", "setting": "[9]", "result": 0.789}, {"measurement": "glycan array binding signal (z-score)", "setting": "[10]", "result": -1.1}, {"measurement": "glycan array binding signal (z-score)", "setting": "[11]", "result": -0.354}, {"measurement": "glycan array binding signal (z-score)", "setting": "[12]", "result": 0.051}, {"measurement": "glycan array binding signal (z-score)", "setting": "[13]", "result": 1.19}, {"measurement": "glycan array binding signal (z-score)", "setting": "[14]", "result": 0.292}, {"measurement": "glycan array binding signal (z-score)", "setting": "[15]", "result": 0.881}, {"measurement": "glycan array binding signal (z-score)", "setting": "[16]", "result": 0.097}, {"measurement": "glycan array binding signal (z-score)", "setting": "[17]", "result": -0.966}, {"measurement": "glycan array binding signal (z-score)", "setting": "[18]", "result": -0.6}, {"measurement": "glycan array binding signal (z-score)", "setting": "Fuc(a1-2)Gal(b1-4)Glc", "result": 0.068}, {"measurement": "glycan array binding signal (z-score)", "setting": "Fuc(a1-2)Gal(b1-4)Glc6S", "result": 0.589}, {"measurement": "glycan array binding signal (z-score)", "setting": "Fuc(a1-2)Gal(b1-4)GlcNAc", "result": -0.027}, {"measurement": "glycan array binding signal (z-score)", "setting": "[19]", "result": 0.155}, {"measurement": "glycan array binding signal (z-score)", "setting": "[20]", "result": 0.064}, {"measurement": "glycan array binding signal (z-score)", "setting": "[21]", "result": -1.32}, {"measurement": "glycan array binding signal (z-score)", "setting": "[22]", "result": 1.39}, {"measurement": "glycan array binding signal (z-score)", "setting": "[23]", "result": -0.714}, {"measurement": "glycan array binding signal (z-score)", "setting": "[24]", "result": 0.355}, {"measurement": "glycan array binding signal (z-score)", "setting": "[25]", "result": -0.965}, {"measurement": "glycan array binding signal (z-score)", "setting": "[26]", "result": -0.957}, {"measurement": "glycan array binding signal (z-score)", "setting": "[27]", "result": -0.527}, {"measurement": "glycan array binding signal (z-score)", "setting": "[28]", "result": 1.73}, {"measurement": "glycan array binding signal (z-score)", "setting": "[29]", "result": -0.021}, {"measurement": "glycan array binding signal (z-score)", "setting": "[30]", "result": -1.12}, {"measurement": "glycan array binding signal (z-score)", "setting": "[31]", "result": 0.714}]}]}
